This is one part of the list. Residues, ends and D or L forms follow the SMILES beside them. *: point of attachment. Cbz = O=C(OCc1ccccc1)*
How the values were obtained:
Experiment in all cases: log2 fold change, soluble protein after heating vs DMSO (PISA); higher = thermal stabilisation; K562 cells, 10 uM, 30 min; active = over 0.2 and 3.5 SD of the protein, either way, in both replicates (recomputed)
[1] = compound: CC(C)C1=C2N=C(C=C(N2N=C1)NCC3=CC=CC=C3)NCCCCCCN
How it was run: (§1)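 Thermal stability values are relative to control samples and come from duplicates. They are expressed as log2 fold changes. For measurement, K562 cells (2×10^6 cells/mL) received 10 μM compound for 30 min, and aliquots were heated for 3 min over 48°C-58°C, pooled, and extracted at 4°C in PBS with 0.5% NP-40. Soluble protein, the supernatant after 21,000xg for 90 min, was quantified by TMTpro 16plex LC-MS/MS with equalised channel sums.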

Amino acid sequences for entries named in this document (tags omitted). A change or cut given only in a name is not applied to a line headed by its entry.
UniProt Q16549: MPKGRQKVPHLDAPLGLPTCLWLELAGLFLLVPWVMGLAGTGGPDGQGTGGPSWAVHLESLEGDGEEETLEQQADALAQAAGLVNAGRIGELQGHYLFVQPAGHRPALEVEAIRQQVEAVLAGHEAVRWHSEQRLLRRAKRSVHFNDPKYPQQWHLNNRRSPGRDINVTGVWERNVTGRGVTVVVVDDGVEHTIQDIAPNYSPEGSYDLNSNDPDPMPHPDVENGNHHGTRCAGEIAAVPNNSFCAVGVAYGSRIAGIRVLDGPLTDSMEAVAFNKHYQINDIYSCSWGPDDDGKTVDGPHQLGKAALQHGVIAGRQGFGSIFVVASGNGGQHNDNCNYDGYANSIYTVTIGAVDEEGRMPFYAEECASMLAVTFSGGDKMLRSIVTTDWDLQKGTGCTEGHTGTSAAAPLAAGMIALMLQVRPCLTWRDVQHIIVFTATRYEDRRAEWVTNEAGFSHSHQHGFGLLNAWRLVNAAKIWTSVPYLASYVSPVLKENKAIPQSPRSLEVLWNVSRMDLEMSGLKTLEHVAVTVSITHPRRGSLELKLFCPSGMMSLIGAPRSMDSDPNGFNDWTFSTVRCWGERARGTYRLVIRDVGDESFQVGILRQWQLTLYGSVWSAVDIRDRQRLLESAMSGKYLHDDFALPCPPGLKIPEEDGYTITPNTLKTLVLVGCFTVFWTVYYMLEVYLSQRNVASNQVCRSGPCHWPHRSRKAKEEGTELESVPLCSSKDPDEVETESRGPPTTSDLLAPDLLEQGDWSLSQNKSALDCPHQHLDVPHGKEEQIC
UniProt Q5EBL8: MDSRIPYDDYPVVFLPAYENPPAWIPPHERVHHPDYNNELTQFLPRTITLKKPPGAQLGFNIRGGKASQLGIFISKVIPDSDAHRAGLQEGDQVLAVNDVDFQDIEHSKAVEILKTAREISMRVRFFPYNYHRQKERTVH
UniProt P51160: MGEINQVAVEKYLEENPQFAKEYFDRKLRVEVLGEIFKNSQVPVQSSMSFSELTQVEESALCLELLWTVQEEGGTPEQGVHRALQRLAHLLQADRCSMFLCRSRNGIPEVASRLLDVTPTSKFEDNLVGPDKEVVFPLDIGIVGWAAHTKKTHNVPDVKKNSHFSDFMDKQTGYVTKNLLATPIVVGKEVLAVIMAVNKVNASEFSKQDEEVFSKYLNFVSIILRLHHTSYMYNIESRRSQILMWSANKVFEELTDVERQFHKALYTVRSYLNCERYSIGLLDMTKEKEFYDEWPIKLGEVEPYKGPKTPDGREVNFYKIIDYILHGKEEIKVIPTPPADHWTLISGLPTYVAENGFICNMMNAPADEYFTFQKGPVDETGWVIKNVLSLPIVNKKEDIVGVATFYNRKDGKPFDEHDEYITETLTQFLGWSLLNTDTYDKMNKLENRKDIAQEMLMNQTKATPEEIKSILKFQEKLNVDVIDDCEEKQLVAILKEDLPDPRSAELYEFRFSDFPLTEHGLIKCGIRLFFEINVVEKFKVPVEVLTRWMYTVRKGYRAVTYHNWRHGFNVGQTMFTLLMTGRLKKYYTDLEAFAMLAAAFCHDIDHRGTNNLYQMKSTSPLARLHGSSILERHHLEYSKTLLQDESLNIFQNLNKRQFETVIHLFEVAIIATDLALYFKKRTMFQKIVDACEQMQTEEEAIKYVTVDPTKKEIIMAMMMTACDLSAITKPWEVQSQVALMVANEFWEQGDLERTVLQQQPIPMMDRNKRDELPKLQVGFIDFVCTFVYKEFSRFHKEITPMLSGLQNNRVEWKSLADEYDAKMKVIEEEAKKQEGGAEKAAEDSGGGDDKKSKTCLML
UniProt P29122: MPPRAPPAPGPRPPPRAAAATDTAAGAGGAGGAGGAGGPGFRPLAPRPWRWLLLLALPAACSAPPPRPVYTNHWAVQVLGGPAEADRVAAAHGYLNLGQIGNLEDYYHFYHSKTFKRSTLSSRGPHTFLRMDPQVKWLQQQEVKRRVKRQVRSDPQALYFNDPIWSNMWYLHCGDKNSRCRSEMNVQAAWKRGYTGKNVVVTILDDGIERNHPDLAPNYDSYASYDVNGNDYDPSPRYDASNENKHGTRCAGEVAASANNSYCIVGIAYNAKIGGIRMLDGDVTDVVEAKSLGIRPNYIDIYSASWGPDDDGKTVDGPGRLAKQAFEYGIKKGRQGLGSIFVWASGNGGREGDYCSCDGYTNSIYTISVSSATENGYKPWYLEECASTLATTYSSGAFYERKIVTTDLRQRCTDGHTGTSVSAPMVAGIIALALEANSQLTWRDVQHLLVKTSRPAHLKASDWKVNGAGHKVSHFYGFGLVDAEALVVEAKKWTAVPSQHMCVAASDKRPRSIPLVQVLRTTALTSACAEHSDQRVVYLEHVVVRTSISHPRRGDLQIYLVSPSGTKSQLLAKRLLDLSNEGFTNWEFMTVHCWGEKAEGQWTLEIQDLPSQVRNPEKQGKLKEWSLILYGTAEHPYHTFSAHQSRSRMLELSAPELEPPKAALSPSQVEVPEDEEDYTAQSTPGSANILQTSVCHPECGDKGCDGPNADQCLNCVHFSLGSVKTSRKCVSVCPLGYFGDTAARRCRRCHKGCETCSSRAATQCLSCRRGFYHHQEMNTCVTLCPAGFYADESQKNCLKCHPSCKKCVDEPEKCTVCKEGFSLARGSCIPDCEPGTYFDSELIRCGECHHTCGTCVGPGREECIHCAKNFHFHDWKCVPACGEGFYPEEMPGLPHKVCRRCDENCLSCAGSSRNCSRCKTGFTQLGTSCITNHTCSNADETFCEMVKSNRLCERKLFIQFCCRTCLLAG
UniProt Q86SE9: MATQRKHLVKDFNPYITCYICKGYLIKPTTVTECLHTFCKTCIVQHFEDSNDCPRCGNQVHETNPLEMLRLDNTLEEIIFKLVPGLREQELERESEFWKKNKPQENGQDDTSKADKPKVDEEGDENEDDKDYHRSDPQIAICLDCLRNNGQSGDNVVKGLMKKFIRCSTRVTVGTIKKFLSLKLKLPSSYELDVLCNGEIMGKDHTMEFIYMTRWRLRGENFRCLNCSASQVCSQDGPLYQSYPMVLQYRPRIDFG
UniProt O43924: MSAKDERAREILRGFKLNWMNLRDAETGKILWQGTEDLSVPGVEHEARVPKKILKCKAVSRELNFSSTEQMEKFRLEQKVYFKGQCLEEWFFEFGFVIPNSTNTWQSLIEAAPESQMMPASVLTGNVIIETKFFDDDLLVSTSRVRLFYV
UniProt O60683: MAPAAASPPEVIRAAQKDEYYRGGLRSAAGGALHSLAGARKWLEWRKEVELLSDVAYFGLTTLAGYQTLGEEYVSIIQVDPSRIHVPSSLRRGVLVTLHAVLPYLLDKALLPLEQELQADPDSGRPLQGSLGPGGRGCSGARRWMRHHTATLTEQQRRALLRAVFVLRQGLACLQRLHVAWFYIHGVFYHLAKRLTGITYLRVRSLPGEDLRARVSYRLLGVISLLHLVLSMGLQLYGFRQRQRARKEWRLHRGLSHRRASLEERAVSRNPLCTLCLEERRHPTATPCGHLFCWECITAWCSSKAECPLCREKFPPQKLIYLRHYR
UniProt Q96MG8: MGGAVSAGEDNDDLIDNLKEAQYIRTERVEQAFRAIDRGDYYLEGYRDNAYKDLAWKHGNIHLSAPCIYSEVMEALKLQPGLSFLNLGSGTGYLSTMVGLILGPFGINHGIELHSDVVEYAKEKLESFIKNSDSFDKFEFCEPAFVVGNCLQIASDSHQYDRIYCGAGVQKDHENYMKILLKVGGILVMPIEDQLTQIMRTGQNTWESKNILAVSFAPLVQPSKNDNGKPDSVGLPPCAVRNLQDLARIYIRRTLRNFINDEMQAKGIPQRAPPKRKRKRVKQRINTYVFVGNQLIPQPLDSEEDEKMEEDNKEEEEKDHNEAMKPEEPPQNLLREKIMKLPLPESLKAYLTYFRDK
UniProt Q8N5Y8: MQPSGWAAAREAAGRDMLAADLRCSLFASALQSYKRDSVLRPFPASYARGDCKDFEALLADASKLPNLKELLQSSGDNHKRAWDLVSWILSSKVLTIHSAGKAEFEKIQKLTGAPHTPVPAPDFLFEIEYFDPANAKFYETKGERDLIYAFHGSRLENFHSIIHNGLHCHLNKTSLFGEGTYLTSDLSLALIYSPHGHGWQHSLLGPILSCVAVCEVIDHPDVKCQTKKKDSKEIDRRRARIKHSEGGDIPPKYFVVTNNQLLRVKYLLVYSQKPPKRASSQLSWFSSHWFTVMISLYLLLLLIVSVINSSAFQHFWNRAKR
UniProt O60829: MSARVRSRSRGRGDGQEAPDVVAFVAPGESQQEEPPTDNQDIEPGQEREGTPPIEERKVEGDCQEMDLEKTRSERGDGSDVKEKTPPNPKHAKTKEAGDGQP
UniProt Q16342: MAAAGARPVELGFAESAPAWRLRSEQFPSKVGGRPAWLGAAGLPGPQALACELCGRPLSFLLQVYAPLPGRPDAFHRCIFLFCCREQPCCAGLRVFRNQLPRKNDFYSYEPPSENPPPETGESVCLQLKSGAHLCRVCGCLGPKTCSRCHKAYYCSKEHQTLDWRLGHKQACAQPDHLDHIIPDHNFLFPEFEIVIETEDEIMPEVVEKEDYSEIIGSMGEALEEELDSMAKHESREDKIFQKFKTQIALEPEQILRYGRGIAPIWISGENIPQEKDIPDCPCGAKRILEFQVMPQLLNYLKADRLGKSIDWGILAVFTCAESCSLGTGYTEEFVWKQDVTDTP
UniProt Q9P0J1: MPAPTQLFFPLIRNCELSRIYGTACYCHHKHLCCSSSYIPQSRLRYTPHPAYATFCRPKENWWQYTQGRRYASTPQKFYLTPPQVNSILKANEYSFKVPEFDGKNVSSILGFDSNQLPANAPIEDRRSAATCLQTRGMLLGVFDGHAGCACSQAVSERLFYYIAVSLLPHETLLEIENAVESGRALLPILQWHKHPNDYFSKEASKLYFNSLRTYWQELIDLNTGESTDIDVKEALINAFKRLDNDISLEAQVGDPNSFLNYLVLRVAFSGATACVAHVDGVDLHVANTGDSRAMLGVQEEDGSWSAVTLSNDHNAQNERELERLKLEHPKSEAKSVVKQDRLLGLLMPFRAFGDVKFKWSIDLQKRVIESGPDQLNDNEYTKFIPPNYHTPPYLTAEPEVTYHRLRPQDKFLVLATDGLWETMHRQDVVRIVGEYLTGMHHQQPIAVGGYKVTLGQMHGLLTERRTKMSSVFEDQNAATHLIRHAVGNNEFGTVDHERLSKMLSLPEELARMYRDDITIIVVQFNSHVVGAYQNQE
UniProt Q9H813: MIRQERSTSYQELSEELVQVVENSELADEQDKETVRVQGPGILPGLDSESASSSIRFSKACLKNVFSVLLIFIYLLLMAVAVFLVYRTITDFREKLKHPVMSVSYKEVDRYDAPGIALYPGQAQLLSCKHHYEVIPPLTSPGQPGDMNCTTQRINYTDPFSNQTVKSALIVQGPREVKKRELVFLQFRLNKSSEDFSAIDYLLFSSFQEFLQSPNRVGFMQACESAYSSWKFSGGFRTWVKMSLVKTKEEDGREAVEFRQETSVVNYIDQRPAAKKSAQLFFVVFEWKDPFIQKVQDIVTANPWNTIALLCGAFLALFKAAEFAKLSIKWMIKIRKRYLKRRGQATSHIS
UniProt Q08174: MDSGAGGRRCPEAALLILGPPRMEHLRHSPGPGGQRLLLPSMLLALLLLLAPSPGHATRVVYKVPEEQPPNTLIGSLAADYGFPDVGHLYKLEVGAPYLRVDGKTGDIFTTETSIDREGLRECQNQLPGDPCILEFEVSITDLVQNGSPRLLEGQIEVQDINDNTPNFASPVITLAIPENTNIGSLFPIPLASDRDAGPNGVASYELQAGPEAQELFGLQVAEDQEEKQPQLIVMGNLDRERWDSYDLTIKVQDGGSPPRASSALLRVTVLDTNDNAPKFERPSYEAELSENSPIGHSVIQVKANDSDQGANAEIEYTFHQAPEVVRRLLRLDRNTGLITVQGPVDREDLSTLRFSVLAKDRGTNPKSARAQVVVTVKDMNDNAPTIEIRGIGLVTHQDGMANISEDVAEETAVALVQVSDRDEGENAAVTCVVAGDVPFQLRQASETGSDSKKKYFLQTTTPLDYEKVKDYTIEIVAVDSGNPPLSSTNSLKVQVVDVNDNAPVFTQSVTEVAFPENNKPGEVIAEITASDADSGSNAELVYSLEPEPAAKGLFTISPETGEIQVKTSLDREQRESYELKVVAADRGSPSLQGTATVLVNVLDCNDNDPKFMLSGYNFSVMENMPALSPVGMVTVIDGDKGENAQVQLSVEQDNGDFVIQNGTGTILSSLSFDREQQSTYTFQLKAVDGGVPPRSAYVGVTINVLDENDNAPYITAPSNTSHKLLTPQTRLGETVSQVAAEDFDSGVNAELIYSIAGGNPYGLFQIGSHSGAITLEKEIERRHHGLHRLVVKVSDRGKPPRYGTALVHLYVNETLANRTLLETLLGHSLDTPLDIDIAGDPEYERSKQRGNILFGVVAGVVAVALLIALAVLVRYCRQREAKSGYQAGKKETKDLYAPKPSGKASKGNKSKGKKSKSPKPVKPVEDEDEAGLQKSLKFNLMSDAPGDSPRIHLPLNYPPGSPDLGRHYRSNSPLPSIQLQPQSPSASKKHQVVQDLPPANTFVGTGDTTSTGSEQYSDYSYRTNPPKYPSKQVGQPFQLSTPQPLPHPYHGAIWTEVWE

IRAK-1-4 Inhibitor I = compound: C1COCCN1CCN2C3=CC=CC=C3N=C2NC(=O)C4=CC(=CC=C4)[N+](=O)[O-] [IRAK-1-4 Inhibitor I]
How it was run: as §1

ibrutinib = compound: C=CC(=O)N1CCC[C@@H](n2nc(-c3ccc(Oc4ccccc4)cc3)c3c(N)ncnc32)C1 [ibrutinib]
How it was run: as §1

[2] = compound: CC(=O)c1cnc2ccc(-c3cc(Cl)c(O)c(Cl)c3)nc2c1N[C@H]1CC[C@H](CN(C)C)CC1
How it was run: as §1

ralimetinib = compound: CC(C)(C)Cn1c(N)nc2ccc(-c3[nH]c(C(C)(C)C)nc3-c3ccc(F)cc3)nc21 [ralimetinib]
How it was run: as §1

[3] = compound: CC(C)C[C@@H](C=O)NC(=O)[C@H](CC(C)C)NC(=O)[C@H](CC(C)C)NC(=O)OCc1ccccc1
How it was run: as §1

pinometostat = compound: CC(C)N(C[C@H]1O[C@@H](n2cnc3c(N)ncnc32)[C@H](O)[C@@H]1O)[C@H]1C[C@@H](CCc2nc3cc(C(C)(C)C)ccc3[nH]2)C1 [pinometostat]
How it was run: as §1

[4] = compound: CC(C)(O)CC(=O)NCCn1ccc2ncnc(Nc3ccc(Oc4cccc(C(F)(F)F)c4)c(Cl)c3)c21
How it was run: as §1

[5] = compound: CC1=C(C(CC(=O)N1)C2=CC=C(C=C2)C(F)(F)F)C(=O)NC3=C(C=C4C(=C3)C=NN4)F
How it was run: as §1

[6] = compound: CC1=C(C2=C(C=C1)C(=O)C3=CC=CC=C3N2CCCN)C
How it was run: as §1

Measured: log2 fold change

PCSK7 (UniProt Q16549)
inactive: [1] 0.036

PCF11 (UniProt O94913)
inactive: IRAK-1-4 Inhibitor I 0.002 | ibrutinib -0.255 | [2] -0.093 | ralimetinib -0.104 | [3] -0.083 | pinometostat -0.058

PDZD11 isoform 2 (UniProt Q5EBL8)
inactive: IRAK-1-4 Inhibitor I -0.042 | ibrutinib 0.046 | ralimetinib 0.014 | [4] -0.071 | [1] 0.007 | [3] 0.053 | pinometostat -0.025 | [5] -0.082 | [6] 0.029

PAGE2 (UniProt Q7Z2X7)
inactive: IRAK-1-4 Inhibitor I 0.072 | ibrutinib 0 | [2] -0.13 | [4] -0.171 | [1] 0.091 | pinometostat -0.006 | [5] 0.049 | [6] 0.232

PDE6C (UniProt P51160)
inactive: IRAK-1-4 Inhibitor I -0.072 | ibrutinib -0.163 | [2] -0.091 | ralimetinib 0 | [3] -0.049 | pinometostat 0.026 | [5] 0.067 | [6] 0.024

PCMTD2 (UniProt Q9NV79)
inactive: ralimetinib 0.028 | [3] 0.09 | [5] 0.17 | [6] 0.115

PCSK6 isoform 7 (UniProt P29122)
inactive: ibrutinib -0.165 | [2] -0.085 | [5] 0.099

PCGF5 (UniProt Q86SE9)
inactive: IRAK-1-4 Inhibitor I -0.005 | ibrutinib 0.089 | ralimetinib 0.016 | [4] 0.156 | [3] -0.171 | pinometostat 0.098

PABPN1 (UniProt Q86U42)
inactive: ibrutinib 0.088

PDIA3 (UniProt H7BZJ3)
inactive: IRAK-1-4 Inhibitor I -0.045 | ibrutinib -0.023 | [2] -0.014 | [4] 0.124 | [1] 0.006 | pinometostat 0.026 | [5] -0.042 | [6] 0.174

PDE6D (UniProt O43924)
inactive: IRAK-1-4 Inhibitor I 0.037 | ibrutinib 0.086 | [2] -0.051 | [4] 0.003 | [1] 0.164 | pinometostat 0.017 | [6] -0.01

PALM (UniProt O75781)
inactive: IRAK-1-4 Inhibitor I -0.005 | [1] 0.038 | pinometostat -0.036

PAXBP1 (UniProt Q9Y5B6)
inactive: IRAK-1-4 Inhibitor I -0.547 | ibrutinib -0.124 | ralimetinib 0.079 | [1] -0.039 | [3] 0.06 | pinometostat 0.048 | [6] -0.465

PDIA4, A0A499FI48
inactive: IRAK-1-4 Inhibitor I -0.093 | [2] 0.064 | ralimetinib 0.106 | [3] 0.03 | pinometostat 0.033 | [6] -0.044

PANK1 (UniProt Q8TE04)
inactive: ibrutinib -0.021 | [2] -0.093 | ralimetinib 0.028 | [4] -0.021 | [1] -0.064 | [3] -0.033 | [5] 0.078 | [6] 0.038

PAF1 (UniProt Q8N7H5)
inactive: ralimetinib 0.096 | [4] -0.068 | [3] 0.217

PDE4DIP (UniProt E9PS60)
inactive: IRAK-1-4 Inhibitor I -0.183 | [1] 0.171 | pinometostat 0.178

PDXP (UniProt B1AHD3)
inactive: [4] -0.219

PCBP2 (UniProt F8VZX2)
inactive: IRAK-1-4 Inhibitor I -0.177 | ibrutinib 0.212 | ralimetinib -0.004 | [1] -0.127 | [3] 0.138 | pinometostat 0.136

PAN3 (UniProt Q58A45)
inactive: ralimetinib -0.052 | [3] 0.087

PAICS (UniProt D6RF62)
inactive: [2] -0.063 | ralimetinib -0.211 | [3] 0.331

Fetched one by one from the list above (three):
PAGE2 (UniProt Q7Z2X7)
inactive: IRAK-1-4 Inhibitor I 0.072 | ibrutinib 0 | [2] -0.13 | [4] -0.171 | [1] 0.091 | pinometostat -0.006 | [5] 0.049 | [6] 0.232

PAICS (UniProt D6RF62)
inactive: [2] -0.063 | ralimetinib -0.211 | [3] 0.331

PDIA3 (UniProt H7BZJ3)
inactive: IRAK-1-4 Inhibitor I -0.045 | ibrutinib -0.023 | [2] -0.014 | [4] 0.124 | [1] 0.006 | pinometostat 0.026 | [5] -0.042 | [6] 0.174

Additional records.

PEX10 isoform 2 (UniProt O60683)
inactive: [2] -0.138 | [6] -0.103

PDE3B (UniProt Q13370)
inactive: IRAK-1-4 Inhibitor I -0.13 | [4] -0.048 | pinometostat 0.168

PCMTD1 (UniProt Q96MG8)
inactive: IRAK-1-4 Inhibitor I 0.122 | ibrutinib -0.065 | ralimetinib 0.271 | [4] -0.12 | [3] 0.012 | pinometostat 0.196 | [5] -0.026

PAFAH1B1 (UniProt I3L3N5)
inactive: IRAK-1-4 Inhibitor I -0.055 | ibrutinib -0.173 | [2] 0.052 | pinometostat 0.024

PAPOLA (UniProt G3XAH6)
inactive: [5] 0.088

PEMT isoform 2 (UniProt Q9UBM1)
inactive: [1] -0.22 | [6] 0.025

PACSIN3 (UniProt Q9UKS6)
inactive: IRAK-1-4 Inhibitor I -0.446 | ralimetinib -0.046 | [4] 0.163 | [1] 0.116 | [3] 0.117 | pinometostat 0.169

PANK3 (UniProt Q9H999)
inactive: ibrutinib 0.028 | [2] 0.015 | ralimetinib -0.015 | [4] -0.012 | [1] -0.013 | [3] 0.084 | [5] -0.111 | [6] -0.029

PCID2 (UniProt Q5JVF3)
active: [1] -0.428
inactive: IRAK-1-4 Inhibitor I -0.008 | ibrutinib -0.015 | ralimetinib 0.007 | [4] 0.063 | [3] -0.02 | pinometostat 0.037 | [6] 0.06

PARP16 isoform 3 (UniProt Q8N5Y8)
inactive: IRAK-1-4 Inhibitor I -0.036 | ibrutinib -0.13 | [2] -0.003 | [4] 0.032 | [1] -0.012 | pinometostat -0.097 | [6] -0.027

PAGE4 (UniProt O60829)
inactive: ibrutinib 0.28 | [2] 0.084 | ralimetinib 0.06 | [4] -0.043 | [1] 0.129 | [3] -0.014 | [5] 0.07 | [6] -0.027

PDCD2 (UniProt Q16342)
inactive: IRAK-1-4 Inhibitor I -0.166 | ibrutinib 0.139 | [4] 0.076 | pinometostat 0.303 | [6] -0.123

PCBP2 (UniProt F8VRH0)
inactive: IRAK-1-4 Inhibitor I 0.118 | ibrutinib 0.057 | [2] -0.092 | [4] -0.263 | [1] 0.123 | pinometostat 0.022 | [6] -0.113

PDP1 isoform 2 (UniProt Q9P0J1)
inactive: IRAK-1-4 Inhibitor I -0.226 | ibrutinib 0.158 | pinometostat -0.197

PACC1 (UniProt Q9H813)
inactive: IRAK-1-4 Inhibitor I 0.053 | ibrutinib -0.003 | [2] -0.033 | [4] -0.133 | pinometostat 0.01 | [5] 0.148 | [6] 0.066

PCDH1 isoform 2 (UniProt Q08174)
inactive: [6] -0.096

PCNX1 (UniProt Q96RV3)
inactive: ibrutinib 0.008 | [4] 0.005 | [6] 0.143

PAN2 (UniProt Q504Q3)
inactive: ibrutinib -0.134

— the supplement of paper PMC10849652
